This is an account of results in US20250188457A1, “COMPOSITIONS AND METHODS FOR THE TREATMENT OF GLIOBLASTOMA BY INHIBITION OF THE TFPI2-CD51-STAT6 SIGNALING AXIS” (Northwestern University, priority 2023, published 2025).

Sequences of proteins named here, by UniProt entry; tags and fusion partners are left off. Residues count along the entry.
UniProt P06756, residues 31-1048: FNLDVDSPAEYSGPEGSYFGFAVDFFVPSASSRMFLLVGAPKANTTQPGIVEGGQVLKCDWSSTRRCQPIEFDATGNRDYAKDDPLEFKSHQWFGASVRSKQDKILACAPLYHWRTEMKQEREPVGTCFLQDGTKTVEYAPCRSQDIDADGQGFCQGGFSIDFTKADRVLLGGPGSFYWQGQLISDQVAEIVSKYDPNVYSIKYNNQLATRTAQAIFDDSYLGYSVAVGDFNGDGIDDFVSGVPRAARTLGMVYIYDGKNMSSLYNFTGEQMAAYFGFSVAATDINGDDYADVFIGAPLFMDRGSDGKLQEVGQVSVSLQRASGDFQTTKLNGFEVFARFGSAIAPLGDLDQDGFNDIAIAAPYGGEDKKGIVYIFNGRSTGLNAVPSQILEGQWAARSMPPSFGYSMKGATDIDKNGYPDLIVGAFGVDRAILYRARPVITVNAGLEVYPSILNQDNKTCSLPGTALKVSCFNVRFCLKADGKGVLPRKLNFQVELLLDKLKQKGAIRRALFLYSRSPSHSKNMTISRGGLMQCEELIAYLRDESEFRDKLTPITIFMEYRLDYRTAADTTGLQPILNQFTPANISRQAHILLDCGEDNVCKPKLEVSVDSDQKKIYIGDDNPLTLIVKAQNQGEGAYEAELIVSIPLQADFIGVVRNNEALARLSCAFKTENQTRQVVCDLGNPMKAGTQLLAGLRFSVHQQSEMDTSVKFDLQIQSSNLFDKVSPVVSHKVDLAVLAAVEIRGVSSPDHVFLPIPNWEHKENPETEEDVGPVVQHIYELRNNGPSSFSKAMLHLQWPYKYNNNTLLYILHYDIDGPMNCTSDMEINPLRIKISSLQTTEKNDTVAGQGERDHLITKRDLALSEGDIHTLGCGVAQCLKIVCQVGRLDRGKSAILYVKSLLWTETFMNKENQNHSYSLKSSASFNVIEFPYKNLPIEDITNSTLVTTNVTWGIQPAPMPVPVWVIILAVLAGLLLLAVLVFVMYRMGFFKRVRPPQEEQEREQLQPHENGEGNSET

No constants are given. Whether binding was seen depends on the method and setting. Binding seen in cells or lysates may run through a third protein. Some results given as binding are weak or reduced against the parent protein; the word gives no strength.

The target in assay [1] is T1, CD51 (integrin alpha V, Itgav) on mouse SIM-A9 microglia (mouse) (UniProt P43406).
T1 sequence (looked up): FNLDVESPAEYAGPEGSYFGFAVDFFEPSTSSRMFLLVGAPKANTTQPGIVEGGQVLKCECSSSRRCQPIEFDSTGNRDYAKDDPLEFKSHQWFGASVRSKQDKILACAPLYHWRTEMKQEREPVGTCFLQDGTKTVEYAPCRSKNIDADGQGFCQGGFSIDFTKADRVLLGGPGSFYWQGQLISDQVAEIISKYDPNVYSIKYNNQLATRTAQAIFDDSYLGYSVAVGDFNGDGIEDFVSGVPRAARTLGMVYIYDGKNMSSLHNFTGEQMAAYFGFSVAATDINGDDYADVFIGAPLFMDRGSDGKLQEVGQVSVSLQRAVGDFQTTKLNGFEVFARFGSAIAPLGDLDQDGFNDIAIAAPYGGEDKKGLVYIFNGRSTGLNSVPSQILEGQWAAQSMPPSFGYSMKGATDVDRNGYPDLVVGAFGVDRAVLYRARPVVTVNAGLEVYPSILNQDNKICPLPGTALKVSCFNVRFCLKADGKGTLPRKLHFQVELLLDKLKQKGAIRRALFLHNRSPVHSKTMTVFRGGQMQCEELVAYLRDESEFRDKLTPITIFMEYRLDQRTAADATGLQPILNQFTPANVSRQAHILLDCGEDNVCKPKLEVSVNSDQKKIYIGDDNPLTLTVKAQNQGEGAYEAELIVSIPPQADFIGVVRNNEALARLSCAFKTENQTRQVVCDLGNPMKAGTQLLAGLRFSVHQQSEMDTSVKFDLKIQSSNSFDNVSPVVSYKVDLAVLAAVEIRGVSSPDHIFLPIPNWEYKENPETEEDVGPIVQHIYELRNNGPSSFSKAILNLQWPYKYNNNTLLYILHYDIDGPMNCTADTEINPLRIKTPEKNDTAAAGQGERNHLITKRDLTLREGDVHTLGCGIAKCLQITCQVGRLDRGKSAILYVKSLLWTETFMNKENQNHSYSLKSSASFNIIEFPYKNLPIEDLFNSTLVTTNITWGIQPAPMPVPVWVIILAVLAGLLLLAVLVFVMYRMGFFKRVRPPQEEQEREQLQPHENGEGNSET
The assay is described as follows: co-immunoprecipitation and immunoblot from SIM-A9 microglia treated with 20 ng/ml TFPI2 recombinant protein for 1 hr.

The target in assay [2] is CD51 (integrin alpha V, ITGAV) on human microglia (HMC3 cell line, primary human microglia PrhMG) (human) (UniProt P06756). Kind of assay: co-immunoprecipitation and immunoblot from HMC3 microglia treated with 20 ng/ml TFPI2 recombinant protein for 1 hr.

B1: TFPI2 recombinant protein (tissue factor pathway inhibitor 2; BioVision, #7481-10) (ligand, UniProt P48307 23-235, looked up)
chain: DAAQEPTGNNAEICLLPLDYGPCRALLLRYYYDRYTQSCRQFLYGGCEGNANNFYTWEACDDACWRIEKVPKVCRLQVSVDDQCEGSTEKYFFNLSSMTCEKFFSGGCHRNRIENRFPDEATCMGFCAPKKIPSFCYSPKDEGLCSANVTRYYFNPRYRTCDAFTYTGCGGNDNNFVSREDCKRACAKALKKKKKMPKLRFASRIRKIRKKQF
notes: Bought recombinant protein added to microglia at 20 ng/ml; also called recombinant TFPI2; secreted TFPI2
For the molecule B1, the binding entry in assay [1] and in assay [2] was “binds” in each case.
